Values from PubChem BioAssay AID504764 (Drosophila RNAi Screening Center, 2011)

Screen: 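Genes whose knock-down alters Notch-dependent transcription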 (primary screen)
Cells: Drosophila Kc167 cells
Reagent: long dsRNA against Drosophila genes
Timing: about 5 days (4 days dsRNA, then 24 h after transfection)
Challenge: transfection of constitutively active membrane-tethered Notch lacking the extracellular domain, read 24 h later
Detection: 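Light from a Notch-responsive E(spl)m3 luciferase reporter under active Notch, with control-promoter and no-Notch reporter wells to normalise; raw counts from paired wells a and b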
Reading the numbers: induced reporter light, run 1, well a and induced reporter light, run 1, well b: higher = more light from the Notch target reporter with active Notch; control promoter light, run 1, well a and control promoter light, run 1, well b: higher = more light from the viral control promoter (cell number, transfection, viability); uninduced reporter light, run 1, well a: higher = more light from the Notch target reporter without active Notch
Active means: 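Hit if the duplicate-averaged log2 ratio of induced to control-promoter light gives a plate-wise z beyond ±2, or induced to uninduced beyond ±1.8; weak-control or discordant-duplicate wells dropped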
Calls: active = modifier hit (raised or lowered Notch signal); inactive = not a hit
The deposit covers about 22,000 reagents; below is an unselected part of those with a known target gene and a result. Over the whole deposit, 403 (1.9%) got an active call. 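Unnormalised raw counts per well; ratio z-scores behind the hit calls and whether each hit raises or lowers signal are not deposited.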 The numbers tell different reagents against one gene apart. Names joined by + are all predicted targets of the reagent. Not given: the amount of reagent.

target	reagent	induced reporter light, run 1, well a	induced reporter light, run 1, well b	control promoter light, run 1, well a	control promoter light, run 1, well b	uninduced reporter light, run 1, well a	Outcome
bcd + CR14578	1	63750	84615	84515	1.11e5	10665	inactive
snsl	1	1.82e5	1.26e5	1.97e5	1.79e5	8965	inactive
CG9815	1	1.53e5	1.32e5	1.08e5	1.26e5	12500	inactive
Cyp40	1	89645	81135	66465	23035	8725	inactive
Mco3	1	1.49e5	1.87e5	2.07e5	2.40e5	13470	inactive
CG17049 (retired record)	1	88340	74610	85000	91745	7625	inactive
CtsL4	1	1.12e5	1.53e5	61995	59875	17005	inactive
olf186-M	1	1.24e5	1.07e5	1.31e5	1.63e5	9728	inactive
Mondo	1	1.77e5	1.55e5	1.60e5	1.93e5	10970	inactive
Mondo	2	30905	27500	38960	34690	1495	inactive
Prp19	1	26755	20988	18528	22240	2645	inactive
Cat	1	1.98e5	2.45e5	2.80e5	3.62e5	18975	inactive
CG5902	1	1.61e5	1.63e5	1.90e5	2.13e5	14485	inactive
CG30196	1	2.16e5	2.03e5	1.86e5	1.79e5	14700	inactive
Sec10	1	62850	83485	66145	80320	6335	inactive
CG40005 (retired record) + cta	1	83630	1.01e5	79725	87360	8565	inactive
ft	1	86220	98115	57855	77940	6610	active
CG13875	1	1.71e5	1.50e5	1.98e5	1.59e5	7350	inactive
sNPF-R	1	1.55e5	98995	1.09e5	1.11e5	10120	inactive
Tti1	1	72110	73605	87350	68260	4242	inactive
CG15468	1	75875	95900	1.06e5	1.21e5	6760	active
Aladin	1	1.93e5	1.64e5	1.96e5	2.23e5	11965	inactive
CG31251	1	1.63e5	1.68e5	2.22e5	2.13e5	11085	inactive
CG15330	1	1.34e5	1.32e5	2.98e5	2.28e5	9160	inactive
CG11882	1	1.22e5	1.10e5	1.74e5	1.51e5	11455	inactive
beat-Ia	1	1.19e5	1.48e5	1.85e5	1.91e5	10720	inactive

Limited to “induced reporter light, run 1, well b”, for 3 of the entries above:
CG31251	1.68e5
CG15330	1.32e5
CG11882	1.10e5

Further reagents follow.
target	reagent	induced reporter light, run 1, well a	induced reporter light, run 1, well b	control promoter light, run 1, well a	control promoter light, run 1, well b	uninduced reporter light, run 1, well a	Outcome
AstC	1	1.31e5	1.74e5	69665	1.01e5	19120	inactive
CG15269	1	1.11e5	1.15e5	1.14e5	1.17e5	8805	inactive
Paip1	1	33520	46445	67890	64345	4782	inactive
CG13989	1	1.75e5	1.48e5	1.87e5	1.39e5	10590	inactive
CG15473	1	85665	1.03e5	1.26e5	1.63e5	5995	inactive
CG13965	1	63320	56145	63835	47985	2560	inactive
His1:CG33816 + His1:CG33828 + His1:CG33819 + 21 more	1	45730	64735	70760	66545	6420	inactive
cocoon	1	1.35e5	1.17e5	2.36e5	2.15e5	7265	inactive
Loxl2	1	1.29e5	1.29e5	1.02e5	1.19e5	9125	inactive
CG6951	1	51680	50405	55625	50295	4455	inactive
Faf2	1	2.47e5	3.25e5	2.46e5	2.66e5	19830	inactive
CG13042	1	2.20e5	1.49e5	2.08e5	38005	12210	inactive
CG7564	1	2.21e5	1.18e5	2.15e5	2.12e5	5628	inactive
CG34187 (retired record)	1	1.74e5	2.25e5	2.72e5	3.01e5	17705	inactive
dhd	1	2.31e5	1.70e5	2.33e5	2.11e5	14910	inactive
tsg	1	1.34e5	1.50e5	2.17e5	2.61e5	10865	inactive
E(spl)m7-HLH	1	1.86e5	1.75e5	2.22e5	2.99e5	16088	inactive
Ccs	1	1.84e5	1.74e5	1.81e5	2.40e5	16165	inactive
CG15142	1	1.26e5	1.40e5	1.29e5	1.29e5	11485	inactive
CG12436 (retired record)	1	3.32e5	2.50e5	3.90e5	3.05e5	11690	inactive
CG12436 (retired record)	2	1.51e5	1.53e5	2.17e5	1.68e5	8880	inactive
ndl	1	2.08e5	2.12e5	2.48e5	2.57e5	10750	inactive
CG12689	1	1.43e5	1.60e5	2.47e5	2.98e5	10645	inactive
CG5966	1	2.09e5	1.86e5	2.39e5	2.10e5	15482	inactive
